The results in this text go back to article PMC5998563.

Protein sequences, listed by entry. Tags and fused reporters are not part of them. Lines headed by an entry give the natural chain unless they say otherwise; changes in a name come on top.
UniProt Q60932: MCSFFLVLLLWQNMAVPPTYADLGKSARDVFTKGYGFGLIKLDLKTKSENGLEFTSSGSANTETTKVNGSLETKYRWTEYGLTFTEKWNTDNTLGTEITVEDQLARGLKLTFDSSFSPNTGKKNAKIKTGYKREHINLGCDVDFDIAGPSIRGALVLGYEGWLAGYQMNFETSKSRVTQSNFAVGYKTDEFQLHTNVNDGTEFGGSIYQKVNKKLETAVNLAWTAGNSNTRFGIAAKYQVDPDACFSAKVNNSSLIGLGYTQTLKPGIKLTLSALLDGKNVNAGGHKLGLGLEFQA
UniProt P11881: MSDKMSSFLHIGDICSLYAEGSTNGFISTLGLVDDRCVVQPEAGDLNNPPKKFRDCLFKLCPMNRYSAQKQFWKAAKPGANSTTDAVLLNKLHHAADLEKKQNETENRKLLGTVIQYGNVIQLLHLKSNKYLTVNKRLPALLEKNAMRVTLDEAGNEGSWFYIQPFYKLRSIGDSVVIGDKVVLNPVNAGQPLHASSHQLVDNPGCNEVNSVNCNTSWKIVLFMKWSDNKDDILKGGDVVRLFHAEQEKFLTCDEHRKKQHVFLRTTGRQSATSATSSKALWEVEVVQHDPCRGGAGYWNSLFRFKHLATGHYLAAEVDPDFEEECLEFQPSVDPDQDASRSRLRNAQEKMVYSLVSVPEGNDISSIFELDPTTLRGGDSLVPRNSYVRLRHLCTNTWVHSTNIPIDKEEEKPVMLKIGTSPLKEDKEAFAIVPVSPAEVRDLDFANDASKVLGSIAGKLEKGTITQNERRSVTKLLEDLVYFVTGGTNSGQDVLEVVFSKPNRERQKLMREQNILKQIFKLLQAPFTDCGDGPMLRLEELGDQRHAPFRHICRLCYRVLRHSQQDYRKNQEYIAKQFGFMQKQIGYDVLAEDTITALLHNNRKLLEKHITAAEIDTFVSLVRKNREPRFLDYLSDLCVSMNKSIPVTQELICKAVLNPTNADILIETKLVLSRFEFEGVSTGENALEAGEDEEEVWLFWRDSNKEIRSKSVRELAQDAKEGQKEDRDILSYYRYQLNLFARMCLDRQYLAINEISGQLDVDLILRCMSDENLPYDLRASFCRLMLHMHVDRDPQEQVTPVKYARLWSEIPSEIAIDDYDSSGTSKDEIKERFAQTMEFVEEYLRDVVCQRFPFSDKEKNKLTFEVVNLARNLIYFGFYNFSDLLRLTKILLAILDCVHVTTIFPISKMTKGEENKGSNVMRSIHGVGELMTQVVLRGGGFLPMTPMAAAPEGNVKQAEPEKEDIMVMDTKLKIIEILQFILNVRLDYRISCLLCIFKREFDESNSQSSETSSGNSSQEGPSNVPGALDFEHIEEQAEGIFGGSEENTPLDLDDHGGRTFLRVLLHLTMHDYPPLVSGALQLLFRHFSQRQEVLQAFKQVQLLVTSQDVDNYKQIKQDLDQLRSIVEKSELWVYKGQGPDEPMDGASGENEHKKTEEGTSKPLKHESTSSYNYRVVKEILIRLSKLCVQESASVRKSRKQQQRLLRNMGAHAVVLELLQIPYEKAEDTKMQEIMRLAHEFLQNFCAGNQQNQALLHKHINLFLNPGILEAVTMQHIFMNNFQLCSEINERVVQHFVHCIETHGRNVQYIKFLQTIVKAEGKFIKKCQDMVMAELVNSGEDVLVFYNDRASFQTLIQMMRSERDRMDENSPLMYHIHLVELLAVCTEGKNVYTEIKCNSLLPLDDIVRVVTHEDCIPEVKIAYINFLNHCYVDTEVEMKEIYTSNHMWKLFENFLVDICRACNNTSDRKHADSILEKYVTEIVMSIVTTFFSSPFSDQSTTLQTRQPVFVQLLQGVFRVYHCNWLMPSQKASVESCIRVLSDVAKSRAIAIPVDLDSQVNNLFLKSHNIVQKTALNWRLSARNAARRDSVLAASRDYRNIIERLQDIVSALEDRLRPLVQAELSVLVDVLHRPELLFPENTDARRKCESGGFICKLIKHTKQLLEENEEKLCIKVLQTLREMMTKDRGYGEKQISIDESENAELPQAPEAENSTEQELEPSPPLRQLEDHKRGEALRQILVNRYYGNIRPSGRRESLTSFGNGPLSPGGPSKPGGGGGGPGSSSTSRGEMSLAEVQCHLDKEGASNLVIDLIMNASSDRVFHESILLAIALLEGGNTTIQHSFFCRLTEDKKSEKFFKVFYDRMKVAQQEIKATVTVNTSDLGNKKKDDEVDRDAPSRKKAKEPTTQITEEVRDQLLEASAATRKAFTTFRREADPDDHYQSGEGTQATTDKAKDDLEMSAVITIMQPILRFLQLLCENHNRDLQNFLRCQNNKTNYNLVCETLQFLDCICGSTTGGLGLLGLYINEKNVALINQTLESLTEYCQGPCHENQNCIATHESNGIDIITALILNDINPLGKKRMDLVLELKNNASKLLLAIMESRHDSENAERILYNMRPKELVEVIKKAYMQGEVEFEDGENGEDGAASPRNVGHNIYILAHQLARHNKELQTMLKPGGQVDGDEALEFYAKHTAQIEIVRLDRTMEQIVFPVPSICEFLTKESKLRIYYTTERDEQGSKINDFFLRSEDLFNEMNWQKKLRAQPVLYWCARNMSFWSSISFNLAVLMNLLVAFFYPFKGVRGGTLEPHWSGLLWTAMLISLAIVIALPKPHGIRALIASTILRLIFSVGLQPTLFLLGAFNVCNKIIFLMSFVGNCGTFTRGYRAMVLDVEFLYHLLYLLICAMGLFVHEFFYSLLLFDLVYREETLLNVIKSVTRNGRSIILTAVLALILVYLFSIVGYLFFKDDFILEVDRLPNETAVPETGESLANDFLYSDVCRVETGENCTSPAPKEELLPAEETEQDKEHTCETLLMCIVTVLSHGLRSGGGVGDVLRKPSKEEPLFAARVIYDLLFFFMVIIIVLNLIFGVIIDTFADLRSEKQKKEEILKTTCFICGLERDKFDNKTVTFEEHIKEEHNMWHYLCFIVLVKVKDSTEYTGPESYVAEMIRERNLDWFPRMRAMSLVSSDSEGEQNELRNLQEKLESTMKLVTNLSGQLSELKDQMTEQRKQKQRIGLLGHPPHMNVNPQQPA

Assay [1] has as its target VDAC1 (mouse skeletal muscle) (mouse (endogenous in skeletal muscle)) (UniProt Q60932). Kind of assay: proximity ligation; in situ PLA on paraffin-embedded sections of gastrocnemius of WT and REDD1 KO mice treated for 5 h with DEX; bright-field revelation, ten fields per muscle.
Assay [2] concerns the target inositol trisphosphate receptor (IP3R) (human (endogenous in primary myoblasts)). The assay can be described thus: proximity ligation; Duolink II in situ PLA in human myoblasts transfected with empty vector (pCMV) or mycREDD1; cells fixed with 4% formaldehyde, permeabilized with 0.1% Triton X100; fluorescence read-out.
In assay [3] the target is voltage-dependent anion channel (VDAC) (human (endogenous in primary myoblasts)). The description is as above.
Assay [4] has the same target. Kind of assay: proximity ligation; Duolink II in situ PLA between endogenous proteins in human primary myoblasts transfected with control siRNA or siRNA against REDD1; spots per nucleus quantified with Blobfinder.

These are yes or no findings as the source states them, for the method shown. Binding seen in cells or lysates may run through a third protein. Binding calls can cover weak binding; strength is not graded here. For some of these results: Sequences can lack the tags named with a protein.

For the molecule “IP3R1 (mouse skeletal muscle) (from UniProt P11881 1-2749)”, the binding result in assay [1] was “binds”.

B1: murine REDD1 fused to Myc (protein, UniProt Q9D3F7 1-229)
chain: MPSLWDRFSSSSSSSSSSRTPAADRPPRSAWGSAAREEGLDRCASLESSDCESLDSSNSGFGPEEDSSYLDGVSLPDFELLSDPEDEHLCANLMQLLQESLSQARLGSRRPARLLMPSQLVSQVGKELLRLAYSEPCGLRGALLDVCVEQGKSCHSVAQLALDPSLVPTFQLTLVLRLDSRLWPKIQGLLSSANSSLVPGYSQSLTLSTGFRVIKKKLYSSEQLLIEEC
For B1, the binding entry in assay [2] and in assay [3] was “binds” each time.

B2: Hexokinase II (HKII) (enzyme, UniProt P52789 1-917)
chain: MIASHLLAYFFTELNHDQVQKVDQYLYHMRLSDETLLEISKRFRKEMEKGLGATTHPTAAVKMLPTFVRSTPDGTEHGEFLALDLGGTNFRVLWVKVTDNGLQKVEMENQIYAIPEDIMRGSGTQLFDHIAECLANFMDKLQIKDKKLPLGFTFSFPCHQTKLDESFLVSWTKGFKSSGVEGRDVVALIRKAIQRRGDFDIDIVAVVNDTVGTMMTCGYDDHNCEIGLIVGTGSNACYMEEMRHIDMVEGDEGRMCINMEWGAFGDDGSLNDIRTEFDQEIDMGSLNPGKQLFEKMISGMYMGELVRLILVKMAKEELLFGGKLSPELLNTGRFETKDISDIEGEKDGIRKAREVLMRLGLDPTQEDCVATHRICQIVSTRSASLCAATLAAVLQRIKENKGEERLRSTIGVDGSVYKKHPHFAKRLHKTVRRLVPGCDVRFLRSEDGSGKGAAMVTAVAYRLADQHRARQKTLEHLQLSHDQLLEVKRRMKVEMERGLSKETHASAPVKMLPTYVCATPDGTEKGDFLALDLGGTNFRVLLVRVRNGKWGGVEMHNKIYAIPQEVMHGTGDELFDHIVQCIADFLEYMGMKGVSLPLGFTFSFPCQQNSLDESILLKWTKGFKASGCEGEDVVTLLKEAIHRREEFDLDVVAVVNDTVGTMMTCGFEDPHCEVGLIVGTGSNACYMEEMRNVELVEGEEGRMCVNMEWGAFGDNGCLDDFRTEFDVAVDELSLNPGKQRFEKMISGMYLGEIVRNILIDFTKRGLLFRGRISERLKTRGIFETKFLSQIESDCLALLQVRAILQHLGLESTCDDSIIVKEVCTVVARRAAQLCGAGMAAVVDRIRENRGLDALKVTVGVDGTLYKLHPHFAKVMHETVKDLAPKCDVSFLQSEDGSGKGAALITAVACRIREAGQR
Turning to B2, the binding result in assay [4] was “binds”.
